# Source: PMC11831767
# Chains of the proteins cited; added tags and fusions are not shown. Residues count along the entry.
# UniProt Q04206: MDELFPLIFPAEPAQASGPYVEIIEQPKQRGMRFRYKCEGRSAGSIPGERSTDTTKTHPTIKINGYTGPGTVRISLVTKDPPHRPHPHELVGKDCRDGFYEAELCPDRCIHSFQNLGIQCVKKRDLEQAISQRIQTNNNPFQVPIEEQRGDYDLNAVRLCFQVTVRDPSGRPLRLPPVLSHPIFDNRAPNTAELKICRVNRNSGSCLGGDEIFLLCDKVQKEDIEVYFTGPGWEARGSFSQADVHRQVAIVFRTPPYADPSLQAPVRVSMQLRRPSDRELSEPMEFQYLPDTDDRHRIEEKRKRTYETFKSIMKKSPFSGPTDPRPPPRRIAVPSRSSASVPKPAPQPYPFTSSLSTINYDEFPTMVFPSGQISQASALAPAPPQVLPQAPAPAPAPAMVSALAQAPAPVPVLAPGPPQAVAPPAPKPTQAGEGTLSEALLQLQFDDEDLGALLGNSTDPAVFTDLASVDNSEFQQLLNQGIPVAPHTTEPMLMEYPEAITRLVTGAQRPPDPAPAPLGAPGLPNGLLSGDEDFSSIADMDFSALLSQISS
# UniProt P19838, residues 1-433: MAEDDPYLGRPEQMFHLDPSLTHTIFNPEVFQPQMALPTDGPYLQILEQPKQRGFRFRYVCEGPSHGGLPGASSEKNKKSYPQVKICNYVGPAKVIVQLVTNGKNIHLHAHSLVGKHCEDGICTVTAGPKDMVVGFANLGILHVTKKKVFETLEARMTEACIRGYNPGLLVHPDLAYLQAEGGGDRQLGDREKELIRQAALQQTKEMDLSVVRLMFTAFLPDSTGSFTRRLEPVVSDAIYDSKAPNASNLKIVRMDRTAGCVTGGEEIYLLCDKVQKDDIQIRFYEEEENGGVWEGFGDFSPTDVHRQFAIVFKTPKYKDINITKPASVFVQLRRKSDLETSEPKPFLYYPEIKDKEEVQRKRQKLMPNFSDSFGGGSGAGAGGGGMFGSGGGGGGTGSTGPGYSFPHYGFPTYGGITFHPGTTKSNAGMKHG
# No constants are given. Whether binding was seen depends on the method and setting. Binding seen in cells or lysates may run through a third protein. Some results given as binding are weak or reduced against the parent protein; the word gives no strength.
# Target: His-tagged p65, full length (human (amplified from 293T cells)) (UniProt Q04206)
# Experiment: co-IP; 293T cells co-transfected with p65-His and 2C-Flag or p65-His and PCI-Flag (legend: p65, p50 and 2C); immunoprecipitated with anti-His; p50 detected by western blot
substance,measurement,value
p50 (from UniProt P19838 1-433),binding,binds
